# Measured values published in the supplement of paper PMC8728848.
# This is one part of the list.
# B1: SspB A3vp1 (Streptococcus gordonii), Q54186 (protein)
# chain: MTNEADYQAKLAAYQTELARVQKANADAKATYEKAVEDNKAKNAAIKAENEEIKQRNAVAKTDYEAKLAKYEADLAKYKKEFAAYTAALAEAESKKKQDGYLSEPRSQSLNFKSEPNAIRTIDSSVHQYGQQELDALVKSWGISPTNPDRKKSRAYSYFNAINSNNTYAKLVLEKDKPVDVTYTGLKNSSFNGKKISKVVYTYTLKETGFNDGTKMTMFASSDPTVTAWYNDYFTSTNINVKVKFYDEEGQLMNLTGGLVNFSSLNRGNGSGAIDKDAIESVRNFNGRYIPISGSSIKIHENNSAYADSSNAEKSLGARWNTSEWDTTSSPNNWYGAIVGEITQSEISFNMASSKSGNIWFAFNSNINAIGVPTKPVAPTAPTQPMYETEKPLEPAPVAPSYENEPTPPVKTPDQPEPSKPAAALEHHHHHH
# What was measured:
# Experiment in all cases: glycan array binding signal (z-score within array); higher = stronger binding
# Conditions in all cases: glycan notation: IUPAC condensed, linker removed
# [1] = target: Gal(b1-3)GlcNAc(b1-3)Gal(b1-4)GlcNAc(b1-2)[Gal(b1-3)GlcNAc(b1-3)Gal(b1-4)GlcNAc(b1-6)]Man(a1-6)[Gal(b1-3)GlcNAc(b1-3)Gal(b1-4)GlcNAc(b1-2)Man(a1-3)]Man(b1-4)GlcNAc(b1-4)[Fuc(a1-6)]GlcNAc
# Outline: (§1)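 Columns mapping to the same glycan were averaged after glycan names were converted to IUPAC-condensed notation. The data come from 3228 arrays in the Consortium for Functional Glycomics database, limited to those with an available protein sequence. Binding is reported as a within-array Z-score averaged across arrays of one protein sequence and across linkers.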
# [2] = target: Gal(b1-3)GlcNAc(b1-3)Gal(b1-4)GlcNAc(b1-3)Gal(b1-4)GlcNAc(b1-2)[Gal(b1-3)GlcNAc(b1-3)Gal(b1-4)GlcNAc(b1-3)Gal(b1-4)GlcNAc(b1-6)]Man(a1-6)[Gal(b1-3)GlcNAc(b1-3)Gal(b1-4)GlcNAc(b1-3)Gal(b1-4)GlcNAc(b1-2)Man(a1-3)]Man(b1-4)GlcNAc(b1-4)[Fuc(a1-6)]GlcNAc
# Outline: as §1
# [3] = target: Gal(b1-3)GlcNAc(b1-3)Gal(b1-4)GlcNAc(b1-6)[Gal(b1-3)GlcNAc(b1-3)]Gal(b1-4)Glc
# Outline: as §1
# [4] = target: Gal(b1-3)GlcNAc(b1-3)Gal(b1-4)[Fuc(a1-3)]GlcNAc
# Outline: as §1
# [5] = target: Gal(b1-3)GlcNAc(b1-3)Gal(b1-4)[Fuc(a1-3)]GlcNAc(b1-6)[Gal(b1-3)GlcNAc(b1-3)]Gal(b1-4)Glc
# Outline: as §1
# [6] = target: Gal(b1-3)GlcNAc(b1-3)GalNAc
# Outline: as §1
# [7] = target: Gal(b1-3)GlcNAc(b1-6)Gal(b1-4)GlcNAc
# Outline: as §1
# [8] = target: Gal(b1-3)GlcNAc(b1-6)GalNAc
# Outline: as §1
# [9] = target: Gal(b1-3)GlcNAc(b1-6)[Gal(b1-3)]GalNAc
# Outline: as §1
# Gal(b1-3)GlcNAc6S = target: Gal(b1-3)GlcNAc6S
# Outline: as §1
# [10] = target: Gal(b1-3)[Fuc(a1-4)]GlcNAc
# Outline: as §1
# [11] = target: Gal(b1-3)[Fuc(a1-4)]GlcNAc(b1-2)Man
# Outline: as §1
# [12] = target: Gal(b1-3)[Fuc(a1-4)]GlcNAc(b1-2)Man(a1-3)[Gal(b1-3)[Fuc(a1-4)]GlcNAc(b1-2)Man(a1-6)]Man(b1-4)GlcNAc(b1-4)[Fuc(a1-6)]GlcNAc
# Outline: as §1
# [13] = target: Gal(b1-3)[Fuc(a1-4)]GlcNAc(b1-3)Gal(b1-3)[Fuc(a1-4)]GlcNAc
# Outline: as §1
# [14] = target: Gal(b1-3)[Fuc(a1-4)]GlcNAc(b1-3)Gal(b1-4)[Fuc(a1-3)]GlcNAc
# Outline: as §1
# [15] = target: Gal(b1-3)[Fuc(a1-4)]GlcNAc(b1-6)GalNAc
# Outline: as §1
# [16] = target: Gal(b1-3)[GlcNAc(b1-6)]GalNAc
# Outline: as §1
# [17] = target: Gal(b1-3)[Neu5Ac(a2-6)]GalNAc
# Outline: as §1
# [18] = target: Gal(b1-3)[Neu5Ac(a2-6)]GlcNAc(b1-4)Gal(b1-4)Glc
# Outline: as §1
# [19] = target: Gal(b1-3)[Neu5Ac(b2-6)]GalNAc
# Outline: as §1
# Gal(b1-4)Gal = target: Gal(b1-4)Gal
# Outline: as §1
# [20] = target: Gal(b1-4)GalNAc(a1-3)[Fuc(a1-2)]Gal(b1-4)GlcNAc
# Outline: as §1
# [21] = target: Gal(b1-4)GalNAc(b1-3)[Fuc(a1-2)]Gal(b1-4)GlcNAc
# Outline: as §1
# Gal(b1-4)Glc = target: Gal(b1-4)Glc
# Outline: as §1
# Gal(b1-4)Glc6S = target: Gal(b1-4)Glc6S
# Outline: as §1
# Gal(b1-4)GlcNAc = target: Gal(b1-4)GlcNAc
# Outline: as §1
# [22] = target: Gal(b1-4)GlcNAc(a1-6)Gal(b1-4)GlcNAc
# Outline: as §1
# Gal(b1-4)GlcNAc(b1-2)Man = target: Gal(b1-4)GlcNAc(b1-2)Man
# Outline: as §1
# [23] = target: Gal(b1-4)GlcNAc(b1-2)Man(a1-3)Man(b1-4)GlcNAc(b1-4)GlcNAc
# Outline: as §1
# [24] = target: Gal(b1-4)GlcNAc(b1-2)Man(a1-3)[Gal(b1-4)GlcNAc(b1-2)Man(a1-6)]Man(b1-4)GlcNAc(b1-4)GlcNAc
# Outline: as §1
# [25] = target: Gal(b1-4)GlcNAc(b1-2)Man(a1-3)[Gal(b1-4)GlcNAc(b1-2)Man(a1-6)]Man(b1-4)GlcNAc(b1-4)[Fuc(a1-6)]GlcNAc
# Outline: as §1
# [26] = target: Gal(b1-4)GlcNAc(b1-2)Man(a1-3)[Gal(b1-4)GlcNAc(b1-2)Man(a1-6)][Gal(b1-4)GlcNAc(b1-4)]Man(b1-4)GlcNAc(b1-4)[Fuc(a1-6)]GlcNAc
# Outline: as §1
# [27] = target: Gal(b1-4)GlcNAc(b1-2)Man(a1-3)[Gal(b1-4)GlcNAc(b1-2)Man(a1-6)][GlcNAc(b1-4)]Man(b1-4)GlcNAc(b1-4)[Fuc(a1-6)]GlcNAc
# Outline: as §1
# [28] = target: Gal(b1-4)GlcNAc(b1-2)Man(a1-3)[GlcNAc(b1-2)Man(a1-6)]Man(b1-4)GlcNAc(b1-4)GlcNAc
# Outline: as §1
# [29] = target: Gal(b1-4)GlcNAc(b1-2)Man(a1-3)[GlcNAc(b1-4)][Gal(b1-4)GlcNAc(b1-2)Man(a1-6)]Man(b1-4)GlcNAc(b1-4)GlcNAc
# Outline: as §1
# [30] = target: Gal(b1-4)GlcNAc(b1-2)Man(a1-3)[Man(a1-6)]Man(b1-4)GlcNAc(b1-4)GlcNAc
# Outline: as §1
# [31] = target: Gal(b1-4)GlcNAc(b1-2)Man(a1-6)Man(b1-4)GlcNAc(b1-4)GlcNAc
# Outline: as §1
# [32] = target: Gal(b1-4)GlcNAc(b1-2)Man(a1-6)[GlcNAc(b1-2)Man(a1-3)]Man(b1-4)GlcNAc(b1-4)GlcNAc
# Outline: as §1
binder,measurement,setting,value
B1,glycan array binding signal (z-score),[1],1.11
same,glycan array binding signal (z-score),[2],2.53
same,glycan array binding signal (z-score),[3],-0.881
same,glycan array binding signal (z-score),[4],-0.421
same,glycan array binding signal (z-score),[5],-0.296
same,glycan array binding signal (z-score),[6],1.43
same,glycan array binding signal (z-score),[7],-0.659
same,glycan array binding signal (z-score),[8],-0.034
same,glycan array binding signal (z-score),[9],0.011
same,glycan array binding signal (z-score),Gal(b1-3)GlcNAc6S,0.504
same,glycan array binding signal (z-score),[10],-0.514
same,glycan array binding signal (z-score),[11],-0.191
same,glycan array binding signal (z-score),[12],0.75
same,glycan array binding signal (z-score),[13],-1.17
same,glycan array binding signal (z-score),[14],-0.801
same,glycan array binding signal (z-score),[15],0.696
same,glycan array binding signal (z-score),[16],-0.11
same,glycan array binding signal (z-score),[17],0.056
same,glycan array binding signal (z-score),[18],-0.063
same,glycan array binding signal (z-score),[19],-0.723
same,glycan array binding signal (z-score),Gal(b1-4)Gal,-0.088
same,glycan array binding signal (z-score),[20],-1.24
same,glycan array binding signal (z-score),[21],-0.433
same,glycan array binding signal (z-score),Gal(b1-4)Glc,0.149
same,glycan array binding signal (z-score),Gal(b1-4)Glc6S,1.33
same,glycan array binding signal (z-score),Gal(b1-4)GlcNAc,-0.53
same,glycan array binding signal (z-score),[22],-0.728
same,glycan array binding signal (z-score),Gal(b1-4)GlcNAc(b1-2)Man,0.562
same,glycan array binding signal (z-score),[23],-0.334
same,glycan array binding signal (z-score),[24],-0.969
same,glycan array binding signal (z-score),[25],0.515
same,glycan array binding signal (z-score),[26],3.03
same,glycan array binding signal (z-score),[27],-0.295
same,glycan array binding signal (z-score),[28],-0.379
same,glycan array binding signal (z-score),[29],-0.128
same,glycan array binding signal (z-score),[30],1.2
same,glycan array binding signal (z-score),[31],-0.26
same,glycan array binding signal (z-score),[32],-0.156

# Part of the list above, tab-delimited:
binder	measurement	setting	value
B1	glycan array binding signal (z-score)	Gal(b1-4)GlcNAc(b1-2)Man	0.562
same	glycan array binding signal (z-score)	[23]	-0.334
